The numbers were not newly measured in patent US8071348B2, “Protein tyrosine phosphatase substrate-trapping double mutant and uses thereof” (Albert Einstein College of Medicine of Yeshiva University, priority 2002, dated 2011), which cites them from elsewhere.

The chains are these.
B1: C215S: existing PTP1B substrate-trapping mutant, active site Cys215 replaced by Ser (protein, UniProt P18031 1-435, looked up, variant C215S)
Tyrosine-protein phosphatase …: MEMEKEFEQIDKSGSWAAIYQDIRHEASDFPCRVAKLPKNKNRNRYRDVSPFDHSRIKLHQEDNDYINASLIKMEEAQRSYILTQGPLPNTCGHFWEMVWEQKSRGVVMLNRVMEKGSLKCAQYWPQKEEKEMIFEDTNLKLTLISEDIKSYYTVRQLELENLTTQETREILHFHYTTWPDFGVPESPASFLNFLFKVRESGSLSPEHGPVVVHSSAGIGRSGTFCLADTCLLLMDKRKDPSSVDIKKVLLEMRKFRMGLIQTADQLRFSYLAVIEGAKFIMGDSSVQDQWKELSHEDLEPPPEHIPPPPRPPKRILEPHNGKCREFFPNHQWVKEETQEDKDCPIKEEKGSPLNAAPYGIESMSQDTEVRSRVVGGSLRGAQAASPAKGEPSLPEKDEDHALSYWKPFLVNMCVATVLTAGAYLCYRFLFNSNT
B2: PTP1B/D181A, catalytic domain (residues 1 to 321) (protein)
chain: MEMEKEFEQIDKSGSWAAIYQDIRHEASDFPCRVAKLPKNKNRNRYRDVSPFDHSRIKLHQEDNDYINASLIKMEEAQRSYILTQGPLPNTCGHFWEMVWEQKSRGVVMLNRVMEKGSLKCAQYWPQKEEKEMIFEDTNLKLTLISEDIKSYYTVRQLELENLTTQETREILHFHYTTWPAFGVPESPASFLNFLFKVRESGSLSPEHGPVVVHCSAGIGRSGTFCLADTCLLLMDKRKDPSSVDIKKVLLEMRKFRMGLIQTADQLRFSYLAVIEGAKFIMGDSSVQDQWKELSHEDLEPPPEHIPPPPRPPKRILEPHN
B3: wild-type PTP1B, catalytic domain (residues 1 to 321) (protein)
chain: MEMEKEFEQIDKSGSWAAIYQDIRHEASDFPCRVAKLPKNKNRNRYRDVSPFDHSRIKLHQEDNDYINASLIKMEEAQRSYILTQGPLPNTCGHFWEMVWEQKSRGVVMLNRVMEKGSLKCAQYWPQKEEKEMIFEDTNLKLTLISEDIKSYYTVRQLELENLTTQETREILHFHYTTWPDFGVPESPASFLNFLFKVRESGSLSPEHGPVVVHCSAGIGRSGTFCLADTCLLLMDKRKDPSSVDIKKVLLEMRKFRMGLIQTADQLRFSYLAVIEGAKFIMGDSSVQDQWKELSHEDLEPPPEHIPPPPRPPKRILEPHN

The series concerns Ac-Asp-Ala-Asp-Glu-F2Pmp-Leu-NH2. The settings on record: ITC, 25° C. and pH 7.0; data from (24); cited from earlier work.
Regarding B1, the TΔS was -1.2 ± 0.2 kcal/mol, the ΔG is -9.2 ± 0.1 kcal/mol and the ΔH was -10.4 ± 0.2 kcal/mol.

With B2, the TΔS is 3.7 ± 0.1 kcal/mol, the ΔG is -10.2 ± 0.1 kcal/mol and the ΔH is -6.5 ± 0.1 kcal/mol.

As to B3, the TΔS is 5.1 ± 0.2 kcal/mol, the ΔG is -9.0 ± 0.1 kcal/mol and the ΔH was -3.9 ± 0.2 kcal/mol.
